Measured values published in paper PMC12040169 (PLOS Biology, 2025).
Some of the results follow.

tested on: T1, CTL2-GFP (C. trachomatis L2/434/Bu, GFP-expressing); set-up: species or system HeLa; Intracellular C. trachomatis growth in HeLa cells, bulk GFP fluorescence relative to DMSO; settings: bulk GFP, single well; 28.5 h, 10 µM; inhibitor
T1 construct: L2/434/Bu, GFP-expressing

In order of rising “% of control remaining” value:
1. Cc1cc(NS(=O)(=O)c2ccc(NC(=O)CCCOc3ccc(Cl)cc3Cl)cc2)no1 [CBK297145]  39.2974%
2. CC1CCCN(c2ncnc3c2[nH]c2ccccc23)C1 (stereo not shown) [CBK287948]  74.5367%
3. O=C(CSc1nnc(-c2ccccc2)c(-c2ccccc2)n1)Nc1ccc([N+](=O)[O-])cc1 [CBK263406]  76.145%
4. CC(=O)NCCc1nc2ccccc2n1CCOc1ccc(Cl)cc1 [CBK269610]  79.3571%
5. COc1cc([C@@]23CC[C@@H](NC(=O)Nc4cccc(C(F)(F)F)c4F)C[C@@H]2N(C)CC3)ccc1C#N [CBK078562]  90.3016%
6. CC1CCN(S(=O)(=O)c2ccc(NC(=O)COc3ccc([N+](=O)[O-])cc3)cc2)CC1 [CBK264994]  95.0348%
7. COc1cc(OC)c(NC(=O)c2c(-c3ccccc3)noc2C)cc1Cl [CBK268167]  96.3184%
8. Cc1ccc(NC(=O)N2CCn3cccc3C2c2cccnc2)cc1 (stereo not shown) [CBK287733]  102.023%
9. Cc1nc2ccccc2nc1CSc1nnc(Cc2ccccc2)n1-c1ccccc1 [CBK268360]  102.284%
10. COc1ccccc1CN1CCc2[nH]c(=S)[nH]c(=O)c2C1 [CBK288495]  103.392%
11. O=C1N(CCc2ccccc2)CC=CCC12CN(Cc1ccc3[nH]ccc3c1)CCO2 (stereo not shown) [CBK286130]  103.43%
12. COC(=O)c1ccc2c(=O)n(CCc3ccc(S(N)(=O)=O)cc3)c(=S)[nH]c2c1 [CBK268238]  103.715%
13. N#Cc1ccccc1N1CCN(c2cncc(-c3ccc(F)cc3F)n2)CC1 [CBK065708]  104.532%
14. CN1CCC(N2CCN(C(=O)c3cnc(-c4ccccn4)nc3C(F)(F)F)CC2)CC1 [CBK149089]  105.006%
15. CCOc1ccc(Nc2ncnc3c2cnn3Cc2ccccc2)cc1 [CBK072752]  107.435%
16. COc1ccc(-c2ccccc2)cc1NCc1cc2cc(OC)c(OC)cc2[nH]c1=O [CBK286160]  108.652%
17. CCCCc1ccc(C(=O)CSc2nc(N)c(C#N)c(-c3ccc(O)cc3)c2C#N)cc1 [CBK261268]  109.284%
18. Cc1ccc(-c2nnn(CC(=O)N(CCO)C(C(=O)NC3CCCC3)c3ccc(F)cc3)n2)o1 (stereo not shown) [CBK084756]  109.401%
19. CCOC(=O)Cc1nc2ccccc2[nH]1 [CBK261674]  110.253%
20. O=C(O)CC(C(=O)N1CCOCC1)N1CCCCC1 (stereo not shown) [CBK287074]  112.425%
21. O=C(Cc1c[nH]cn1)N1CCN(C(=O)c2ccco2)CC1 [CBK144448]  114.666%
22. CCn1c(SCC(=O)Nc2ccc(N3CCOCC3)cc2)nnc1-c1ccncc1 [CBK269765]  115.696%
23. CC1CCc2c(C(=O)N3CC(C)OC(C)C3)csc2C1 (stereo not shown) [CBK304442]  116.41%
24. COc1cc(NC(=O)c2cc([N+](=O)[O-])ccc2N2CCN(C)CC2)c2ncccc2c1 [CBK263034]  117.964%
25. COc1ccc(CN2CCN(S(C)(=O)=O)CC2)c(OC)c1OC [CBK074491]  118.015%
26. CC(=O)N[C@H]1CO[C@H]2[C@@H]1OC[C@@H]2n1nnnc1-c1ccccc1 [CBK289483]  118.782%
27. Cc1ccc(C(=O)N2CN(C(=O)CN(C)CCN(C)C)CC2(C)C)cc1 [CBK091460C]  120.633%
28. O=C1NCCCC12CCN(Cc1ccc(F)cc1)CC2 [CBK285345]  120.781%
29. c1ccc(COc2ccc(-n3cnnn3)cc2)nc1 [CBK288196]  120.9%
30. Cc1nc(C)c(C(=O)Nc2ccc3c(c2)CN(Cc2ccccc2)C3)o1 [CBK281835]  121.773%
31. CCOc1ccccc1C(=O)N1CCC(c2cc(C(=O)NC(C)C)c3ccccc3n2)C1 (stereo not shown) [CBK285918]  122.142%
32. Cc1ccc(/C=C2\SC(=S)N(CCCC(=O)N3CCC(Cc4ccccc4)CC3)C2=O)cc1 [CBK264356]  122.575%
33. S=c1[nH]nc(CN2CCSCC2)n1-c1ccc(Cl)cc1 [CBK013868]  122.849%
34. O=C1CC2(CCN(C(=O)c3ccc4cc[nH]c4c3)CC2)Oc2ccc(CN3CCOCC3)cc21 [CBK169469]  122.927%
35. COc1ccccc1NC(=O)Cn1nc(-c2ccc(C)cc2)ccc1=O [CBK269974]  123.345%
36. CCN(CCCCC1NC(=O)NC1=O)Cc1ccncc1 (stereo not shown) [CBK143967]  124.8%
37. Cc1noc(C2(O)CCN(CCc3ccc(F)c(F)c3)C2)n1 (stereo not shown) [CBK304753]  125.6%
38. CNC(=O)CC1SC(NC2CC3C=CC2C3)=NC1=O (stereo not shown) [CBK047491]  127.618%
39. OCCN1CC2(CCN(Cc3ncc[nH]3)CC2)c2ccccc21 [CBK126763]  130.023%
40. Cc1ccc(Cl)cc1-n1cc(-c2ccc(Cl)cc2)nn1 [CBK113045]  130.847%
41. O=C(Cc1cccc2ccccc12)Nc1cc(C(=O)O)cc(C(=O)O)c1 [CBK268475]  133.542%
42. O=C(NCCO)/C(=C\c1ccccc1)NC(=O)c1ccc(I)cc1 [CBK265162]  135.536%
43. CC(=O)N1CCCC(c2cc3cccnc3n2CC(=O)N(C)C)C1 (stereo not shown) [CBK285177]  139.215%
44. O=C(O)c1cccc(NS(=O)(=O)c2ccc(F)cc2F)c1 [CBK155084]  141.429%
45. O=C(CSc1ccc(Cl)cc1)N1CCN(c2ccc([N+](=O)[O-])c(N3CCOCC3)c2)CC1 [CBK269670]  143.938%
46. COC(=O)C(CCSC)NC(=O)c1cccs1 (stereo not shown) [CBK057972]  146.047%
47. COc1ccc(-c2ccnc3[nH]c(=O)ccc23)cc1C [CBK073726]  171.683%
48. Cc1ccc(S(N)(=O)=O)cc1NC(=O)c1ccc(S(=O)(=O)N(C)C)cc1 [CBK266050]  200.731%
49. COc1ccc(C(C)C)cc1-c1cn2ccnc2c(NCc2ccco2)n1 [CBK037269]  240.534%
